Data as given in PubChem BioAssay AID493014 (National Center for Advancing Translational Sciences (NCATS), 2011).
Some of the results follow. The main result of the screen is listed elsewhere. These columns were measured beside it and carry no call. The list favours compounds with an active or inconclusive main result. Potencies come from curve fits of mixed quality, noted in brackets.

Test: qHTS Assay to Find Inhibitors of Chronic Active B-Cell Receptor Signaling
Conditions: ABC-DLBCL IkBa-CBG/CBR reporter, luminescence ratio (green luciferase fused to IkBa over red control in TMD8 lymphoma cells), 4 h
Method in brief: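 Doxycycline induced both beetle luciferases in TMD8 lymphoma cells; IKK-driven degradation limits the IkappaBalpha-fused green signal, while red luminescence normalises for cell number and nonspecific effects. Compounds tested up to 46 uM, 4 hrs.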

[1] = measured here: CBR red luminescence, cell number

Structure (SMILES)	AC50 [1]	AC50 (measured here: IkBa-CBG green luminescence)
Cc1ccc(C)c(NC(=O)COC(=O)c2cc(=O)c3ccccc3o2)c1	20.6 µM [rising, partial curve, poor fit]	–
COc1ccc(S(=O)(=O)NCCSCc2ccco2)cc1Cl	4.11 µM [rising, partial curve, poor fit]	–
C/C(CC1CC(C)(C)OC1=O)=N/Nc1nc(-c2ccccc2)cs1 (configuration not stated)	16.4 µM [falling, partial curve]	–
CC(c1ccco1)N(C(=O)c1ccc(Cl)s1)c1ccccn1 (configuration not stated)	0.891 µM [rising, partial curve, poor fit]	–
Cc1cc(C)cc(OCC(=O)Nc2ccc(F)cc2)c1	14.1 µM [falling, partial curve, poor fit]	–
COc1cccc(N2CCN(CC(=O)Nc3nc(C)c(C(=O)N(C)C)s3)CC2)c1	3.98 µM [rising, full curve, poor fit]	–
CC(C)CNC(=O)C(=O)Nc1ccc2c(c1)N(S(=O)(=O)c1cccs1)CCC2	4.11 µM [rising, single point]	–
Cc1[nH]c2ccccc2c1SCc1nnc(SCc2ccccc2)n1C	0.1 µM [rising, full curve, poor fit]	–
CC(C)CNC(C(=O)Nc1ccc([N+](=O)[O-])cc1Br)c1ccccc1 (configuration not stated)	–	18.4 µM [rising, partial curve, poor fit]
O=C(NCN1CCN(CCO)CC1)c1cnccn1	0.00461 µM [rising, full curve, poor fit]	–
CCCC1(c2ccccc2)NC(=O)N(CC(=O)NCc2ccc(C)cc2)C1=O (configuration not stated)	0.794 µM [rising, full curve, poor fit]	–
CN(C)CCOC(=O)C12CC3(C)CC(C)(CC(C)(C3)C1)C2	0.82 µM [falling, partial curve, poor fit]	–
COc1ccc(C(C[N+](=O)[O-])c2c(-c3ccccc3)cc3ccccn23)c(OC)c1 (configuration not stated)	6.51 µM [falling, partial curve, poor fit]	–
O=C(O)CCCC(=O)Nc1ccn(-c2ccccc2)n1	3.16 µM [falling, full curve]	–
CN(C)c1cc(N/N=C/c2ccc(Cl)cc2)nc(N(C)C)n1	17.8 µM [rising, partial curve, poor fit]	–
O=C(OCCN1C(=O)c2cccc3c(N4CCOCC4)ccc(c23)C1=O)c1ccccc1Cl	20.6 µM [falling, single point]	–

Eight entries out of the list, sorted by number of heavy atoms, descending.
Structure (SMILES)	AC50 [1]	AC50 (measured here: IkBa-CBG green luminescence)
COc1ccc(C(C[N+](=O)[O-])c2c(-c3ccccc3)cc3ccccn23)c(OC)c1 (configuration not stated)	6.51 µM [falling, partial curve, poor fit]	–
COc1cccc(N2CCN(CC(=O)Nc3nc(C)c(C(=O)N(C)C)s3)CC2)c1	3.98 µM [rising, full curve, poor fit]	–
CCCC1(c2ccccc2)NC(=O)N(CC(=O)NCc2ccc(C)cc2)C1=O (configuration not stated)	0.794 µM [rising, full curve, poor fit]	–
Cc1[nH]c2ccccc2c1SCc1nnc(SCc2ccccc2)n1C	0.1 µM [rising, full curve, poor fit]	–
CC(C)CNC(C(=O)Nc1ccc([N+](=O)[O-])cc1Br)c1ccccc1 (configuration not stated)	–	18.4 µM [rising, partial curve, poor fit]
C/C(CC1CC(C)(C)OC1=O)=N/Nc1nc(-c2ccccc2)cs1 (configuration not stated)	16.4 µM [falling, partial curve]	–
CC(c1ccco1)N(C(=O)c1ccc(Cl)s1)c1ccccn1 (configuration not stated)	0.891 µM [rising, partial curve, poor fit]	–
Cc1cc(C)cc(OCC(=O)Nc2ccc(F)cc2)c1	14.1 µM [falling, partial curve, poor fit]	–

Next results.

Structure (SMILES)	AC50 [1]	AC50 (measured here: IkBa-CBG green luminescence)
CCOC(=O)c1c(C)[nH]c(C)c1C(=O)COC(=O)/C=C/c1cccc(F)c1	32.6 µM [rising, partial curve, poor fit]	–
O=C(OCC(=O)N1CCCc2ccccc21)c1cnc(Cl)c(Cl)c1	2.31 µM [falling, partial curve, poor fit]	–
CCOc1ccc(C(=O)NCC(=O)OCC(=O)Nc2ccccc2OCC)cc1	32.6 µM [rising, single point]	–
Cc1c(C(=O)N2CCc3ccccc3C2)sc2nc(-c3ccccc3)cn12	29.1 µM [falling, single point]	–
COC(=O)NCC(C)OC(=O)Nc1cccc(Cl)c1 (configuration not stated)	3.16 µM [rising, single point]	–
O=C(Nc1ccccc1C(=O)O)c1ccc(Cl)c(S(=O)(=O)N2CCOCC2)c1	7.08 µM [falling, partial curve]	–
Cc1ccc(C)c(NC(=O)c2cc(S(=O)(=O)N3CCN(c4cccc(Cl)c4)CC3)ccc2F)c1	0.708 µM [rising, full curve, poor fit]	–
CC1CCN(c2ccc3c(c2)S(=O)(=O)c2cccc(C(=O)NCc4cccc(F)c4)c2C3=O)CC1	0.461 µM [falling, full curve, poor fit]	–
Cc1ccc(/C=N/Nc2ccc(C(=O)O)cc2)o1	0.112 µM [falling, full curve, poor fit]	–
COc1ccccc1CN(C)C(=O)c1ccccc1SCC(=O)N1CCCC1	1.16 µM [rising, full curve, poor fit]	–
CCc1ccc(NC(=O)C2CCC(CNC(=O)[C@@H]3Cc4ccccc4CN3)CC2)cc1 (some centres not stated)	14.1 µM [falling, partial curve, poor fit]	–
COc1ccccc1NC(=O)CCC(=O)c1ccc(-c2ccccc2)cc1	25.9 µM [rising, single point]	–
CC(=O)N(C)c1ccc(NC(=S)NC(=O)/C=C/c2ccco2)cc1	35.5 µM [falling, single point]	–
CC12CC(c3ccccc3O1)C(/C(N)=N/NC(=O)c1ccc(F)cc1)C(=O)N2 (configuration not stated)	23.1 µM [falling, partial curve, poor fit]	–
c1ccc2c(SCc3cn4cccnc4n3)ncnc2c1	17.8 µM [falling, single point]	–
C#CCOCCOCCOCCNc1nc(N2CCN(C(=O)CCCCCCCCCCNC(=O)Cn3cc(CCCCCN)nn3)CC2)nc(N2CCN(C(=O)CCCCCCCCCCNC(=O)[C@H](CO)n3cc(CCCSC)nn3)CC2)n1	20.6 µM [rising, single point]	–
